Assay: general procedure: Fmoc solid-phase peptide synthesis; Fmoc-Cys(Trt)-Rink Amide MBHA resin (0.21 mmol/g) for chain A; Fmoc-Arg(Pbf)-Wang resin (0.4 mmol/g) for chain B; HATU/DIEA
Settings: oxidative folding step, several disulfide bridges, sequence written open

Con-Ins G1
final HPLC purity (214 and 280 nm): 89%
oxidative folding yield (based on the starting amount of purified chain A): 4%
final purity (method not given) (capillary electrophoresis, 214 nm): 80%
oxidative folding yield (on partially folded product): 35%
